Measurements: paper PMC7977470

Target: T1, kallikrein-related peptidase 8 (KLK8) in rat myocardium (not stated (in rat myocardium; species of the KLK8 transgene not told)) (UniProt O88780)
T1 sequence: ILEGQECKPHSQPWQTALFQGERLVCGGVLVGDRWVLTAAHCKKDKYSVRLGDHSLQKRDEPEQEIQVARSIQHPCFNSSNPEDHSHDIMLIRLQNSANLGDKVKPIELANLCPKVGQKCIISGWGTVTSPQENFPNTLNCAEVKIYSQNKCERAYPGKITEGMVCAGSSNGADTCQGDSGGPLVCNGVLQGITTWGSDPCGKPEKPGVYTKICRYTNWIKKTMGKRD
Experiment: affinity purification with mass spectrometry; protein extract of the myocardium of KLK8 transgenic rats immunoprecipitated with anti-KLK8; SDS-PAGE, in-gel trypsin digestion, UPLC-MS/MS; search against the Rattus database (UniProtKB/Swiss-Prot)

B1: plakoglobin (rat) (protein, UniProt Q6P0K8 1-745)
chain: MEVMNLIEQPIKVTEWQQTYTYDSGIHSGVNTCVPSVSSKGLLDEDDTCGRQYTLKKTTTYTQGVPQSQGDLEYQMSTTARAKRVREAMCPGVSGEDSSLLLATQVEGQTTNLQRLAEPSQLLKSAIVHLINYQDDAELATRALPELTKLLNDEDPVVVTKAAMIVNQLSKKEASRRALMGSPQLVAAVVRTMQNTSDLDTARCTTSILHNLSHHREGLLAIFKSGGIPALVRMLSSPVESVLFYAITTLHNLLLYQEGAKMAVRLADGLQKMVPLLNKNNPKFLAITTDCLQLLAYGNQESKLIILANGGPQGLVQIMRNYSYEKLLWTTSRVLKVLSVCPSNKPAIVEAGGMQALGKHLTSNSPRLVQNCLWTLRNLSDVATKQEGLENVLKILVNQLSVDDVNVLTCATGTLSNLTCNNSKNKTLVTQNSGVEALIHAILRAGDKDDITEPAVCALRHLTSRHPEAEMAQNSVRLNYGIPAIVKLLNQPNQWPLVKATIGLIRNLALCPANHAPLQEAAVIPRLVQLLVKAHQDAQRHVAAGTQQPYTDGVRMEEIVEGCTGALHILARDPMNRMEIFRLNTIPLFVQLLYSSVENIQRVAAGVLCELAQDKEAADAIDAEGASAPLMELLHSRNEGTATYAAAVLFRISEDKNPDYRKRVSVELTNSLFKHDPAAWEAAQSMIPINEPYADDMDATYRPMYSSDVPLDPLDMHMDMDGDYPMDTYSDGLRPPYPAADHMLA
binding: binds

No constants are given. Whether binding was seen depends on the method and setting. In cells and extracts the contact can be indirect. Here binding means that the protein was enriched with, or labelled near, the bait; the list need not be complete.
